Among the data in US11857551B1, “Methods for the prevention and treatment of hearing loss” (Ting Therapeutics LLC, priority 2020, dated 2024) are IC50 values, retold here.

The assay relates to HEI-OC1 cells. Put plainly: Caspase-Glo 3/7 assay in cisplatin-treated HEI-OC1 cells. The conditions noted are these: Mus musculus, HEI-OC1, read-out: calculated IC50 (percent protection dose response, caspase 3/7).

pIC50: −log10 of the molar value.

Regarding `CSc1ccc2c(c1)N(CCC1CCCCN1C)c1ccccc1S2` (stereo not shown) [thioridazine], the pIC50 was 4.51.
